Laboratory results from paper PMC3608632.
These are yes or no findings as the source states them, for the method shown. For some of these results: In cells and extracts the contact can be indirect. Some binding calls cover weakened binding; strength is not graded here.

By UniProt entry, the sequences of proteins in these tests, tags left out. Where a name states a change or a piece, a line headed by the entry shows the natural chain unless it says otherwise. Chains listed by the source or under a name are the forms on record and can include a tag or linker. Residues count along the entry.
UniProt P11387: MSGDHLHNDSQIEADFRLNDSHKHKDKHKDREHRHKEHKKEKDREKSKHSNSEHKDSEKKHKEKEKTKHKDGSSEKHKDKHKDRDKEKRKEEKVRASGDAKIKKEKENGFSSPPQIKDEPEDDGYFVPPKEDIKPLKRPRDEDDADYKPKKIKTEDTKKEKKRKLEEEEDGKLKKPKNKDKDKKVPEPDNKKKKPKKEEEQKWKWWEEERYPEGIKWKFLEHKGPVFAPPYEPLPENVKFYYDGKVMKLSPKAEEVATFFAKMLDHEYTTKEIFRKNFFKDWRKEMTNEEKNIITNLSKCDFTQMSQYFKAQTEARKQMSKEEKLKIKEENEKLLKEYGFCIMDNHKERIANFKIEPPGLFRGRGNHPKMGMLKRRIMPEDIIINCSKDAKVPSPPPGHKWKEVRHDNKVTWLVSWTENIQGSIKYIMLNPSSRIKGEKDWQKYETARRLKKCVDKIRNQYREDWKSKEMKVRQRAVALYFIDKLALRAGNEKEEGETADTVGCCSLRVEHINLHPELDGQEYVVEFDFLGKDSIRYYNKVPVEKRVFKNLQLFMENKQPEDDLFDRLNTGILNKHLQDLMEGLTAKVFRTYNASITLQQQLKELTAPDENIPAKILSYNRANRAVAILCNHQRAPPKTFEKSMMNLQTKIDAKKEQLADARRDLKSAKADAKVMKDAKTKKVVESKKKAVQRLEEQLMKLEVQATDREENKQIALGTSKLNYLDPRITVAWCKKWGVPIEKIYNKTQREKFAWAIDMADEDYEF
His/FLAG-tagged topo I deletion construct 4, expressed in H358 cells: residues 1-636 of P11387
His/FLAG-tagged topo I core region, residues 216-636 (construct 7), expressed in H358 cells: residues 216-636 of P11387
His/FLAG-tagged topo I residues 501-765 (construct 8), expressed in H358 cells: residues 501-765 of P11387
UniProt Q8N726: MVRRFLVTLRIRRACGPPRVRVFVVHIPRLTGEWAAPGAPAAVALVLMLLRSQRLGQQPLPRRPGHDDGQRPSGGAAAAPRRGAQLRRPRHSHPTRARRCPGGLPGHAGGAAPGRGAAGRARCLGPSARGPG

Assays:
[1] = target: His/FLAG-tagged topo I deletion construct 4, expressed in 293T cells (human) (UniProt P11387); assay: co-IP; topo I constructs 1-6 from 293T cells selected on cobalt-agarose, eluted, mixed with 3 µg bacterially expressed recombinant human ARF in 20 mM Tris pH 8, 150 mM NaCl, 10% glycerol, 1% NP40, 2 mM EDTA; FLAG IP; ARF Western; both purified
[2] = target: His/FLAG-tagged topo I core region, residues 216-636 (construct 7), expressed in H358 cells (human) (UniProt P11387); assay: co-IP; H358 cells treated with Adp14 (20 moi) and transfected with His/FLAG topo I constructs 1-9; lysed 2 days later in high salt buffer (400 mM NaCl), adjusted to 150 mM salt; mouse anti-FLAG M2 IP overnight at 4°C; ARF Western
[3] = target: His/FLAG-tagged topo I deletion construct 4, expressed in H358 cells (human) (UniProt P11387); assay: as above
[4] = target: His/FLAG-tagged topo I residues 501-765 (construct 8), expressed in H358 cells (human) (UniProt P11387); assay: as above

binding [1]	binding [2]	binding [3]	binding [4]	Substance
binds				recombinant thioredoxin-human ARF fusion protein (from UniProt Q8N726 1-132)
	binds	binds	no binding	p14 Alternate Reading Frame protein (ARF) in H358 cells (from UniProt Q8N726 1-132)
